According to paper PMC12607357:
Results are given in words; binding and its absence hold for the method and conditions named. Binding seen in cells or lysates may run through a third protein. Some entries that bind do so weakly or less than the wild type.

By UniProt entry, the sequences of proteins in these tests, tags left out.
UniProt P46937: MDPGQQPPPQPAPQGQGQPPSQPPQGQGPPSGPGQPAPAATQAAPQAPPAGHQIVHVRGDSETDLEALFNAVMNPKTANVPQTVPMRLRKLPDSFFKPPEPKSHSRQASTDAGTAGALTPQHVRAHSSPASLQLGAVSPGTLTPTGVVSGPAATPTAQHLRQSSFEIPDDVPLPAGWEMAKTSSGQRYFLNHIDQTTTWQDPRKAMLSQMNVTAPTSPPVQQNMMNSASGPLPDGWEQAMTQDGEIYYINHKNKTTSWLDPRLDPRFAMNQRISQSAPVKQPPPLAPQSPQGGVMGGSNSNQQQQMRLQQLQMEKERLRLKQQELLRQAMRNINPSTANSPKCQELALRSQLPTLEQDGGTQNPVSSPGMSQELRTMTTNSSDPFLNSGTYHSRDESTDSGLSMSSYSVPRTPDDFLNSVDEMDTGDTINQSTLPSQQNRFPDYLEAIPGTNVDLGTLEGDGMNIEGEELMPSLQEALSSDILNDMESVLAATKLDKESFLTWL
UniProt Q9NR12: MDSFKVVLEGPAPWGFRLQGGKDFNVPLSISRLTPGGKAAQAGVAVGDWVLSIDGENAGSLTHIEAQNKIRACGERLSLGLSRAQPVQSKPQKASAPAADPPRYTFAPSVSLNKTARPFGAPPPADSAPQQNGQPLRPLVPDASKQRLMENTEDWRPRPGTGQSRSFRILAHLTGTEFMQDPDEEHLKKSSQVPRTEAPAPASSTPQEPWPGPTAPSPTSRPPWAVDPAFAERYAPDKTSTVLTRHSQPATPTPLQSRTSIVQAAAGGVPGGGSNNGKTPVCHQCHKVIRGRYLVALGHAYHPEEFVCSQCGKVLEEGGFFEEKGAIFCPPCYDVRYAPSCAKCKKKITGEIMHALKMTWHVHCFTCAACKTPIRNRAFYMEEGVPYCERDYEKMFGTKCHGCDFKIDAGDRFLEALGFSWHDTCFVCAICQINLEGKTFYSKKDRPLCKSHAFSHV
UniProt P15311: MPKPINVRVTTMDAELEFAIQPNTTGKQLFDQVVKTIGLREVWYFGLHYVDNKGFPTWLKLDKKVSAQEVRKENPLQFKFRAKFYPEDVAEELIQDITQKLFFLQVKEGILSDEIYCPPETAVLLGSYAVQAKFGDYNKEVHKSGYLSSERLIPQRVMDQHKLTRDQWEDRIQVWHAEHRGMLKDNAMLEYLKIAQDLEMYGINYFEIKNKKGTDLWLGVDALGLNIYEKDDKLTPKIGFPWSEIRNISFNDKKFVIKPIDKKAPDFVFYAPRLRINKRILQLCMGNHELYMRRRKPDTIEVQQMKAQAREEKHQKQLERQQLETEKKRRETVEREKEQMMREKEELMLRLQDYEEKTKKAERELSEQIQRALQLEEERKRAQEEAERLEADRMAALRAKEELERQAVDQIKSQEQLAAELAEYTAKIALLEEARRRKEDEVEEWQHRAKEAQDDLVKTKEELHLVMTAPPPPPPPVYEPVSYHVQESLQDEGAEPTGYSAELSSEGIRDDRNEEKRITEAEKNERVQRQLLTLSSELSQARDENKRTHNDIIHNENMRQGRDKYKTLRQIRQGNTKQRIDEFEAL

Biological target: Yes-associated protein (YAP) (human (endogenous in Caco-2)) (UniProt P46937)
Assay: co-IP; endogenous proteins, untreated Caco-2 lysate (0.5% Triton X100 in PBS), 5 ug antibody on protein A/G magnetic beads, 2 h, three washes, Western blot

Row | binding | Substance
1 | binds | PDLIM7 (from UniProt Q9NR12 1-457)
2 | binds | ezrin (from UniProt P15311 1-586)
